# From PubChem BioAssay
# The list shows a part of the results. Measured potencies and affinities stand elsewhere. Entries without a call are filed as inconclusive in the source.
# Columns and labels:
# [1] = Drosophila SCA1 whole organism dose response for polyglutamine toxicity reduction (AID 1595); conditions: Drosophila SCA1 polyglutamine model, at 1 µM, stronger effect = higher value
# PubChem AID 1597 = conditions: Drosophila SCA1 polyglutamine model, at 1 µM, stronger effect = higher value
Structure (SMILES),suppression of toxicity [1],suppression of toxicity (PubChem AID 1597)
Cc1ccc(C(=O)c2ccc(CC(=O)O)n2C)cc1,8.57,15.7
CCOC(=O)CCCCCCCCCCCCC1C=CCC1 (stereo not drawn),0,3.58
CCOc1ccc(Cc2nccc3cc(OCC)c(OCC)cc23)cc1OCC,12.9,12.9
CCC1(c2ccccc2)NC(=O)N(C)C1=O (stereo not drawn),2.85,0.715
NNCCc1ccccc1,8.57,14.3
COC1=CC(C)[C@@H]2C[C@H]3OC(=O)C[C@H]4C(C)=C(OC)C(=O)C([C@@]34C)[C@@]2(C)C1=O (stereo partly drawn),0,3.58
CC1(C)OC(=O)NC1=O,1.43,0.715
CC(CNC(=O)c1ccccc1)C(=O)OCC(=O)[C@@]12OC(C)(C)O[C@@H]1CC1C3CCC4=CC(=O)C=C[C@]4(C)[C@@]3(F)[C@@H](O)C[C@@]12C (stereo partly drawn),0,0.715
Cc1c(NC(=O)c2cccnc2)c(=O)n(-c2ccccc2)n1C,0,3.58
O=C(O)c1cc2cc(Cc3cccnc3)ccc2o1,5.71,5
CN1CC(=O)N=C1N,7.14,8.57
CNCCCC12CCC(c3ccccc31)c1ccccc12,2.86,13.6
C[C@]12CCC3c4ccc(O)cc4CCC3C1C[C@@H](O)[C@@H]2O (stereo partly drawn),12.9,2.15
CN1CCC[C@H]1c1cccnc1,0,10
CC1(C)C2CC[C@]3(C)C(C(=O)C=C4[C@@H]5C[C@@](C)(C(=O)O)CC[C@]5(C)CC[C@]43C)[C@@]2(C)CC[C@@H]1O (stereo partly drawn),0,0
C=NC(C(=O)NC1C(=O)N2C1SC(C)(C)C2C(=O)O)c1ccccc1 (stereo not drawn),2.86,2.86
O=C1C=CC(=C(c2ccc(O)cc2)c2ccc(O)cc2)C=C1,0,5.71
C#C[C@]1(OC(C)=O)CCC2C3CCC4=CC(=O)CC[C@@H]4C3CC[C@@]21C (stereo partly drawn),5.71,5
C[C@]12CCC(=O)C=C1CCC1C2[C@@H](O)C[C@@]2(C)C1CC[C@]2(O)C(=O)COC(=O)CCC(=O)O (stereo partly drawn),8.57,3.58
CN1CCC[C@@H]1CCO[C@](C)(c1ccccc1)c1ccc(Cl)cc1,4.29,7.14
Cc1nc2sccn2c(=O)c1CCN1CCC(=C(c2ccc(F)cc2)c2ccc(F)cc2)CC1,2.86,5.71
O[N+]1=CC=CCC1=S.On1ccccc1=S.[Zn],7.14,4.29

# Four neighbouring compounds from above, for reference:
Structure (SMILES),suppression of toxicity [1],suppression of toxicity (PubChem AID 1597)
Cc1c(NC(=O)c2cccnc2)c(=O)n(-c2ccccc2)n1C,0,3.58
O=C(O)c1cc2cc(Cc3cccnc3)ccc2o1,5.71,5
CN1CC(=O)N=C1N,7.14,8.57
CNCCCC12CCC(c3ccccc31)c1ccccc12,2.86,13.6

# Further entries.

Structure (SMILES),suppression of toxicity [1],suppression of toxicity (PubChem AID 1597)
CC(=O)O[C@]1(C(C)=O)CCC2C3C[C@H](C)C4=CC(=O)CC[C@]4(C)C3CC[C@@]21C (stereo partly drawn),5.71,11.4
Cc1oncc1C(=O)Nc1ccc(C(F)(F)F)cc1,1.43,4.29
CO[C@H]1C[C@H](O[C@H]2[C@H](C)[C@@H](OC3O[C@H](C)C[C@H](N(C)C)[C@H]3O)[C@@H](C)C[C@]3(CO3)C(=O)[C@H](C)[C@@H](O)[C@@H](C)[C@@H](C)OC(=O)[C@@H]2C)O[C@@H](C)[C@@H]1O (stereo partly drawn),0,3.58
CC(NC(=O)C(NC(=O)OCc1ccccc1)C(C)C)C(=O)NC(CC(=O)O)C(=O)OC(F)F (stereo not drawn),0,0.715
CCCCC(CC)CN1CN(CC(CC)CCCC)CC(C)(N)C1 (stereo not drawn),8.57,11.4
CC(C)=CCC1=C(O)c2ccccc2C(=O)C1=O,0,2.86
CC(=O)N(O)CCCCCNC(=O)CCC(=O)N(O)CCCCCNC(=O)CCC(=O)N(O)CCCCCN,2.86,10
N=C(N)c1ccc(OCCCCCOc2ccc(C(=N)N)cc2)cc1,0,0
COc1cc(C(=O)NCc2ccc(OCCN(C)C)cc2)cc(OC)c1OC,7.14,5.71
CN1C2CC(OC(=O)[C@H](CO)c3ccccc3)C[C@H]1[C@H]1OC21 (stereo partly drawn),0,2.15
CO/N=C(\C(=O)NC1C(=O)N2C(C(=O)O)=C(CSc3nc(=O)c(O)nn3C)CS[C@H]12)c1csc(N)n1 (stereo partly drawn),5.71,12.9
CCCCCC(=O)O[C@]1(C(C)=O)CCC2C3CCC4=CC(=O)CC[C@]4(C)C3CC[C@@]21C (stereo partly drawn),7.14,10.7
S=P(N1CC1)(N1CC1)N1CC1,0,4.29
CN(Cc1cc(Br)cc(Br)c1N)C1CCCCC1,0,2.15
N[C@H](Cc1ccccc1)C(=O)O,7.14,1.43
Clc1cccc(Cl)c1NC1=NCCN1,2.86,5
c1ccc(CC2=NCCN2)cc1,2.86,1.43
COC(=O)C1=C(C)NC(C)=C(C(=O)OCCN(C)Cc2ccccc2)C1c1cccc([N+](=O)[O-])c1 (stereo not drawn),2.86,2.15
C=C[C@@]1(C)CC(=O)[C@@]2(O)[C@](C)(O1)[C@@H](OC(C)=O)[C@@H](O)C1C(C)(C)CC[C@H](O)[C@@]12C (stereo partly drawn),11.4,8.57
NCCCCN,0,0
CC(C)Cc1ccc(C(C)C(=O)O)cc1 (stereo not drawn),0,8.57
CC(C)(C)CC(C)(C)c1ccc(O)c(Cc2ccc(Cl)cc2Cl)c1,0,10
